For experiment [1], the target named is T1, Flag-tagged NPRL2, Q8WTW4.
T1 chain: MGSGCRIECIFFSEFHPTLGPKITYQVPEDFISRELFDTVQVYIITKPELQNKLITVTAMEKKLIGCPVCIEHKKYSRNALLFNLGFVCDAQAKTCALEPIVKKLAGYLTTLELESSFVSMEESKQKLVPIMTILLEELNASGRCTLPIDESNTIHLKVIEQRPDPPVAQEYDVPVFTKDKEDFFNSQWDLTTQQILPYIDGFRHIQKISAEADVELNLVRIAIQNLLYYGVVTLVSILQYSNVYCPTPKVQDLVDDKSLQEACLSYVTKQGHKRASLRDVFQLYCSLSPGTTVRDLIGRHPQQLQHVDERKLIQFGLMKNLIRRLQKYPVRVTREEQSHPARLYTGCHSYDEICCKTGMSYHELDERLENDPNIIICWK
Briefly: co-IP; HEK293 cells co-transfected with HA-tagged Sestrin2 and GATOR1 and GATOR2 components; Flag-NPRL2 (Fig. 2A) or Flag-WDR24 (Fig. 2B, S4) IPed with Flag antibody; immunoblot. Particulars: remark: other sources report otherwise. For orientation: In western blotting, separated proteins are transferred to a membrane and probed.

By UniProt entry, the sequences of proteins in these tests, tags left out.
UniProt Q5VZM2: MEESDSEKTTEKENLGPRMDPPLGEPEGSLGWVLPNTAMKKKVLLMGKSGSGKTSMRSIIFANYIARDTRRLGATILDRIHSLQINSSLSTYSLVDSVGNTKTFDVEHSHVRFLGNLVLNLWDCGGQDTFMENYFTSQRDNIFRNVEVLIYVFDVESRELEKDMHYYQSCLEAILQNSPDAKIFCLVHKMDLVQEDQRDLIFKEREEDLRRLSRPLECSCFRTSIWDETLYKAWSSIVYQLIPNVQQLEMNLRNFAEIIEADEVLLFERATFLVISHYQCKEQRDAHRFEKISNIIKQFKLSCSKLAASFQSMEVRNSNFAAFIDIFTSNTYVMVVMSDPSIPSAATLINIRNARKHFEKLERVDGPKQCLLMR

The target in experiment [2] is RagB (endogenous, HEK293) (human (endogenous in HEK293)) (UniProt Q5VZM2). Briefly: co-IP; endogenous proteins; HEK293 cells transduced with GFP or Sestrin2-overexpressing lentiviruses for 48 h; IP with RagB antibody (Fig. 3C) or NPRL2 antibody (Fig. 3D); immunoblot.
The target in experiment [3] is T2, Flag-tagged Sestrin2, P58004.
T2 chain: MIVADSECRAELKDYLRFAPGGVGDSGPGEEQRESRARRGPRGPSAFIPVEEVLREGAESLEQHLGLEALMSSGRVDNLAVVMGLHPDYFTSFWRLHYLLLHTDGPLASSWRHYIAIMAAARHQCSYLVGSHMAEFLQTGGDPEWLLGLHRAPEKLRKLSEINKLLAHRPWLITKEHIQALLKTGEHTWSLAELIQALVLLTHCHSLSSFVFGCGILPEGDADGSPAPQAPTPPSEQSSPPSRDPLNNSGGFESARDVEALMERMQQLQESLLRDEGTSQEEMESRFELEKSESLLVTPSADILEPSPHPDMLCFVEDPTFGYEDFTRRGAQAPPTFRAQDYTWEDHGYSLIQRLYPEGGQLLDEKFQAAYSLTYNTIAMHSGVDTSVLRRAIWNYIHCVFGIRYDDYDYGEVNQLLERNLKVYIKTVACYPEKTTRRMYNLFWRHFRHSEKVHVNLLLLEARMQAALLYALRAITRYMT
Briefly: co-IP; HEK293 cells co-transfected with Sestrin2 (or Sestrin1, or truncated Sestrin2) and all GATOR2 components, in Fig. S3D also the GATOR1 components; Sestrin2 IPed (Flag antibody in Fig. 1C); lysis buffer with 0.3% CHAPS; immunoblot. The note with it: remark: other sources report otherwise.

For experiment [4], the target named is T3, Flag-tagged Sestrin2 (UniProt P58004).
T3 sequence: T2 chain
Described as above.

The target of experiment [5] is T3, Flag-tagged Sestrin2. Nature of the experiment: co-IP; HEK293 cells co-expressing Sestrin2 and one single candidate protein at a time (Fig. S1A); lysis buffer with 0.3% CHAPS.

Results are given in words; binding and its absence hold for the method and conditions named. Binding seen in cells or lysates may run through a third protein. Some entries that bind do so weakly or less than the wild type. For some assays here: Where a sequence is shown, tags or fusion partners need not be part of it.

B1: HA-tagged Sestrin2, P58004 1-480 (protein)
chain: T2 chain
With B1, in experiment [1], the binding entry is reported as “no binding”.

B2: NPRL2 (endogenous, HEK293) (protein, UniProt Q8WTW4 1-380)
chain: T1 chain
For the molecule B2, in experiment [2], the binding result is given as “binds”.

B3: NPRL3 (transfected), Q12980 1-569 (protein)
chain: MRDNTSPISVILVSSGSRGNKLLFRYPFQRSQEHPASQTSKPRSRYAASNTGDHADEQDGDSRFSDVILATILATKSEMCGQKFELKIDNVRFVGHPTLLQHALGQISKTDPSPKREAPTMILFNVVFALRANADPSVINCLHNLSRRIATVLQHEERRCQYLTREAKLILALQDEVSAMADGNEGPQSPFHHILPKCKLARDLKEAYDSLCTSGVVRLHINSWLEVSFCLPHKIHYAASSLIPPEAIERSLKAIRPYHALLLLSDEKSLLGELPIDCSPALVRVIKTTSAVKNLQQLAQDADLALLQVFQLAAHLVYWGKAIIIYPLCENNVYMLSPNASVCLYSPLAEQFSHQFPSHDLPSVLAKFSLPVSLSEFRNPLAPAVQETQLIQMVVWMLQRRLLIQLHTYVCLMASPSEEEPRPREDDVPFTARVGGRSLSTPNALSFGSPTSSDDMTLTSPSMDNSSAELLPSGDSPLNQRMTENLLASLSEHERAAILSVPAAQNPEDLRMFARLLHYFRGRHHLEEIMYNENTRRSQLLMLFDKFRSVLVVTTHEDPVIAVFQALLP
For the molecule B3, the binding entry in experiment [3] was “no binding”.

B4: WDR59 (transfected) (protein, UniProt Q6PJI9 1-974)
chain: MAARWSSENVVVEFRDSQATAMSVDCLGQHAVLSGRRFLYIVNLDAPFEGHRKISRQSKWDIGAVQWNPHDSFAHYFAASSNQRVDLYKWKDGSGEVGTTLQGHTRVISDLDWAVFEPDLLVTSSVDTYIYIWDIKDTRKPTVALSAVAGASQVKWNKKNANCLATSHDGDVRIWDKRKPSTAVEYLAAHLSKIHGLDWHPDSEHILATSSQDNSVKFWDYRQPRKYLNILPCQVPVWKARYTPFSNGLVTVMVPQLRRENSLLLWNVFDLNTPVHTFVGHDDVVLEFQWRKQKEGSKDYQLVTWSRDQTLRMWRVDSQMQRLCANDILDGVDEFIESISLLPEPEKTLHTEDTDHQHTASHGEEEALKEDPPRNLLEERKSDQLGLPQTLQQEFSLINVQIRNVNVEMDAADRSCTVSVHCSNHRVKMLVKFPAQYPNNAAPSFQFINPTTITSTMKAKLLKILKDTALQKVKRGQSCLEPCLRQLVSCLESFVNQEDSASSNPFALPNSVTPPLPTFARVTTAYGSYQDANIPFPRTSGARFCGAGYLVYFTRPMTMHRAVSPTEPTPRSLSALSAYHTGLIAPMKIRTEAPGNLRLYSGSPTRSEKEQVSISSFYYKERKSRRWKSKREGSDSGNRQIKAAGKVIIQDIACLLPVHKSLGELYILNVNDIQETCQKNAASALLVGRKDLVQVWSLATVATDLCLGPKSDPDLETPWARHPFGRQLLESLLAHYCRLRDVQTLAMLCSVFEAQSRPQGLPNPFGPFPNRSSNLVVSHSRYPSFTSSGSCSSMSDPGLNTGGWNIAGREAEHLSSPWGESSPEELRFGSLTYSDPRERERDQHDKNKRLLDPANTQQFDDFKKCYGEILYRWGLREKRAEVLKFVSCPPDPHKGIEFGVYCSHCRSEVRGTQCAICKGFTFQCAICHVAVRGSSNFCLTCGHGGHTSHMMEWFRTQEVCPTGCGCHCLLESTF
On to B4, for which the binding entry is recorded as “binds” in experiment [4] and “binds weakly” in experiment [5].

The values are drawn from article PMC4377584.
